Source: PubChem BioAssay AID1224826 (NIAID, 2016)
Assay: 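Regulators of Tlr4 signalling leading to Tnf-alpha expression in macrophages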 (primary screen). Cells: RAW264.7 G9 macrophages from mouse bearing reporters for p65 (GFP) and the Tnf promoter (mCherry). Reagents: siRNA pool against mouse genes, 100 nM. Time to read-out: 16 h of LPS stimulation, after 2 days of siRNA transfection. Treatment: bacterial lipopolysaccharide (Salmonella minnesota R595), 10 ng/ml. Read-out: 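Nuclear mCherry signal of the Tnf promoter reporter measured by imaging after background removal, scaled to each plate median and turned into robust z-scores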. Scale: Tnf reporter robust z-score: higher = stronger Tnf promoter reporter signal after LPS. Rule for the call: 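Called active when robust z-score is at most -1.3, matching the median of the Tlr4 knock-down control, or over 3; control wells and wells with under 50 cells never active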. Meaning of the calls: active = Tnf reporter clearly lowered or raised; inactive = no clear change in Tnf reporter.
This is a random part of about 17,000 deposited reagents. About 1,110 of them (6.6%) count as active. 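Active means lowered or raised reporter signal; replicate intensities are raw and not normalised per plate.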 Not all columns of the deposit are shown.

{"Target gene":"Sox15 (SRY (sex determining region Y)-box 15)","Tnf reporter robust z-score":-0.77,"fewer than 50 cells in well":"enough cells in well","Outcome":"inactive"}
{"Target gene":"Dspp (dentin sialophosphoprotein)","Tnf reporter robust z-score":-0.67,"fewer than 50 cells in well":"enough cells in well","Outcome":"inactive"}
{"Target gene":"Prorsd1 (prolyl-tRNA synthetase domain containing 1)","fewer than 50 cells in well":"fewer than 50 cells per well; well left out of calls","Outcome":"inactive"}
{"Target gene":"Ppp2r1a (protein phosphatase 2, regulatory subunit A, alpha)","Tnf reporter robust z-score":0.66,"fewer than 50 cells in well":"enough cells in well","Outcome":"inactive"}
{"Target gene":"Ms4a13 (membrane-spanning 4-domains, subfamily A, member 13)","Tnf reporter robust z-score":1.93,"fewer than 50 cells in well":"enough cells in well","Outcome":"inactive"}
{"Target gene":"Sh3gl1 (SH3-domain GRB2-like 1)","Tnf reporter robust z-score":0.26,"fewer than 50 cells in well":"enough cells in well","Outcome":"inactive"}
{"Target gene":"Mmp3 (matrix metallopeptidase 3)","Tnf reporter robust z-score":0.25,"fewer than 50 cells in well":"enough cells in well","Outcome":"inactive"}
{"Target gene":"Tnp2 (transition protein 2)","fewer than 50 cells in well":"fewer than 50 cells per well; well left out of calls","Outcome":"inactive"}

Records listed so far whose target name begins with P or p (2):
{"Target gene":"Prorsd1 (prolyl-tRNA synthetase domain containing 1)","fewer than 50 cells in well":"fewer than 50 cells per well; well left out of calls","Outcome":"inactive"}
{"Target gene":"Ppp2r1a (protein phosphatase 2, regulatory subunit A, alpha)","Tnf reporter robust z-score":0.66,"fewer than 50 cells in well":"enough cells in well","Outcome":"inactive"}

The listing continues:
{"Target gene":"Tfap2c (transcription factor AP-2, gamma)","Tnf reporter robust z-score":-0.31,"fewer than 50 cells in well":"enough cells in well","Outcome":"inactive"}
{"Target gene":"Mthfd1l","Tnf reporter robust z-score":-1.34,"fewer than 50 cells in well":"enough cells in well","Outcome":"active"}
{"Target gene":"Prl6a1 (prolactin family 6, subfamily a, member 1)","Tnf reporter robust z-score":2.12,"fewer than 50 cells in well":"enough cells in well","Outcome":"inactive"}
{"Target gene":"Osbp2 (oxysterol binding protein 2)","Tnf reporter robust z-score":1.54,"fewer than 50 cells in well":"enough cells in well","Outcome":"inactive"}
{"Target gene":"A130050O07Rik (RIKEN cDNA A130050O07 gene)","Tnf reporter robust z-score":-1.06,"fewer than 50 cells in well":"enough cells in well","Outcome":"inactive"}
{"Target gene":"Mical2","Tnf reporter robust z-score":-1.06,"fewer than 50 cells in well":"enough cells in well","Outcome":"inactive"}
{"Target gene":"Rnf138rt1 (ring finger protein 138, retrogene 1)","Tnf reporter robust z-score":2.28,"fewer than 50 cells in well":"enough cells in well","Outcome":"inactive"}
{"Target gene":"Anks4b (ankyrin repeat and sterile alpha motif domain containing 4B)","Tnf reporter robust z-score":1.07,"fewer than 50 cells in well":"enough cells in well","Outcome":"inactive"}
{"Target gene":"Snrpa1 (small nuclear ribonucleoprotein polypeptide A')","fewer than 50 cells in well":"fewer than 50 cells per well; well left out of calls","Outcome":"inactive"}
{"Target gene":"Pcdhb6 (protocadherin beta 6)","Tnf reporter robust z-score":-0.88,"fewer than 50 cells in well":"enough cells in well","Outcome":"inactive"}
{"Target gene":"B3gat1 (beta-1,3-glucuronyltransferase 1)","Tnf reporter robust z-score":-0.91,"fewer than 50 cells in well":"enough cells in well","Outcome":"inactive"}
{"Target gene":"Or4b1c (olfactory receptor family 4 subfamily B member 1C)","Tnf reporter robust z-score":1.61,"fewer than 50 cells in well":"enough cells in well","Outcome":"inactive"}
{"Target gene":"Lcn9 (lipocalin 9)","Tnf reporter robust z-score":0.09,"fewer than 50 cells in well":"enough cells in well","Outcome":"inactive"}
